Measured values: paper PMC12036249
These are yes or no findings as the source states them, for the method shown. Binding seen in cells or lysates may run through a third protein. Some entries that bind do so weakly or less than the wild type. One block for each substance: values may come before it.

Sequences of proteins named here, by UniProt entry; tags and fusion partners are left off.
UniProt Q14289: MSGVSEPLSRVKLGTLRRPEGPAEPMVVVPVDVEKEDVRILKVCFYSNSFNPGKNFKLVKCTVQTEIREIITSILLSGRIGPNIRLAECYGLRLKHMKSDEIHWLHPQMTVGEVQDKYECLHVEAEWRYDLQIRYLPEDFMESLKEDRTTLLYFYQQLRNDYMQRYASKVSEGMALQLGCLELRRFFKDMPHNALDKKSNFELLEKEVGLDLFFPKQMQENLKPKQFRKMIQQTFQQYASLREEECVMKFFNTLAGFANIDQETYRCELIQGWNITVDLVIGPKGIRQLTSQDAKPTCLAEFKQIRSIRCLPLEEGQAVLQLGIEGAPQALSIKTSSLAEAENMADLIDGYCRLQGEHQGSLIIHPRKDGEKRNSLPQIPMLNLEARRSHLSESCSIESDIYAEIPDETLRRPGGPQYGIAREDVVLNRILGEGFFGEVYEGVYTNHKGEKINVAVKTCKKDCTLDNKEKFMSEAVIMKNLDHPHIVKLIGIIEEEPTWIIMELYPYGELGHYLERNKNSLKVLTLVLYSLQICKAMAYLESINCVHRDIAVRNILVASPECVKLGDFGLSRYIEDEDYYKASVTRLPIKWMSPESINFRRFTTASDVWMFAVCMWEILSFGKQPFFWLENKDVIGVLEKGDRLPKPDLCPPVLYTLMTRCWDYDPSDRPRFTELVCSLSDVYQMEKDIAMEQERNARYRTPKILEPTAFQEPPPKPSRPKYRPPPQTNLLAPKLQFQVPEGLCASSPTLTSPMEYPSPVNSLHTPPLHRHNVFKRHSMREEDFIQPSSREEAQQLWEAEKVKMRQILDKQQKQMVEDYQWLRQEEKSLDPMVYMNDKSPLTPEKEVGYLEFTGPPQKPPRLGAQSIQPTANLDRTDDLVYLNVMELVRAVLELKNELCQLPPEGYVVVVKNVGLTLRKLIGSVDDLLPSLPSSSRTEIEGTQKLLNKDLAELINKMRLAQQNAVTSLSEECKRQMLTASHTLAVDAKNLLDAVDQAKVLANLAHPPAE
UniProt O95863: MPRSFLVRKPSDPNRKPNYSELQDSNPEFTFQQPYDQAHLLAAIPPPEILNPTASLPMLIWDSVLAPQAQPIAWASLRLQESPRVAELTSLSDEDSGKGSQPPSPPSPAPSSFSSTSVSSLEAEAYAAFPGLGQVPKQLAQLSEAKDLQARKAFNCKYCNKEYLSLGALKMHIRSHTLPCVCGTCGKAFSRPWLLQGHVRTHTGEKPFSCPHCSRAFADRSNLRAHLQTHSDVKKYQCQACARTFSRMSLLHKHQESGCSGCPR

Key:
[1] = biological target: endogenous PYK2 (human (endogenous in 11Z)) (UniProt Q14289); test: co-IP; endogenous proteins in 11Z cell lysate; immunoprecipitation with anti-Snail1 (Fig. 3C) or anti-PYK2 (Fig. 3D) antibody and Protein A/G agarose beads, overnight at 4 °C, Western blot
[2] = biological target: Flag-tagged PYK2 (proline-rich tyrosine kinase 2) (UniProt Q14289); test: co-IP; Flag-PYK2 and HA-Snail1 co-transfected into HEK293T cells; lysate in IP lysis buffer; immunoprecipitation with anti-HA agarose (Fig. 3A) or anti-Flag agarose (Fig. 3B), overnight at 4 °C, beads washed more than five times, Western blot
[3] = biological target: endogenous Snail1 (human (endogenous in 11Z)) (UniProt O95863); test: co-IP; endogenous proteins in 11Z cell lysate; immunoprecipitation with anti-Snail1 (Fig. 3C) or anti-PYK2 (Fig. 3D) antibody and Protein A/G agarose beads, overnight at 4 °C, Western blot
HA-tagged Snail1 = HA-tagged Snail1 (UniProt O95863); test: co-IP; Flag-PYK2 and HA-Snail1 co-transfected into HEK293T cells; lysate in IP lysis buffer; immunoprecipitation with anti-HA agarose (Fig. 3A) or anti-Flag agarose (Fig. 3B), overnight at 4 °C, beads washed more than five times, Western blot

binding [1]: binds
Substance: endogenous Snail1 (from UniProt O95863 1-264)

binding [2]: binds
Substance: HA-tagged Snail1 (from UniProt O95863 1-264)

binding [3]: binds
Substance: endogenous PYK2 (from UniProt Q14289 1-1009) (enzyme)

binding (HA-tagged Snail1): binds
Substance: Flag-tagged PYK2 (proline-rich tyrosine kinase 2) (from UniProt Q14289 1-1009) (enzyme)
